PubChem BioAssay AID743454, Peter MacCallum Cancer Centre, 2014

- Assay: 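Search for knock-downs that restore vorinostat killing in resistant colon cancer cells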 (primary screen)
- Cells: human HCT116-VR colon cancer cells, selected for vorinostat resistance
- Knock-down reagent: siRNA pool against human genes, 40 nM siRNA pool
- Timing: vorinostat for 24 h, read-out about 72 h after transfection
- Conditions: vorinostat at 2.5 µM final
- Read-out: 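Two measures, CellTiter-Fluor viability and luminescent caspase 3/7 activity, each as fold change against same-plate mock wells, mean of duplicates, then screen-wide robust z-score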
- Scale: viability robust z-score: higher = more viable cells than screen typical; caspase robust z-score: higher = more caspase 3/7 activity than screen typical
- Call rule: 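Hits are knock-downs in viability class RV1/RV2 or caspase class CA1/CA2, excluding ones that killed cells in the no-drug cell-count arm; hits then retested with single siRNAs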
The deposit covers about 18,000 reagents; this is a part drawn at random. Of all reagents, 450 (2.5%) got an active call. 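Single biological run; no consistent viability z cut-off exists, so the class columns, not z-scores, define the calls.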 A number with no mark means an inactive call.

The opening 2 records, ahead of the listing:
target gene | viability hit class | caspase hit class | viability robust z-score | caspase robust z-score
C1QTNF1 | no change | no change | 1.27 | 0.91
NLRP14 | no change | no change | 0.47 | -0.52

Results, from the start:
target gene | viability hit class | caspase hit class | viability robust z-score | caspase robust z-score
C1QTNF1 | no change | no change | 1.27 | 0.91
NLRP14 | no change | no change | 0.47 | -0.52
EFNA1 | no change | no change | 0.31 | 2.53
TM2D3 | no change | no change | 0.71 | 0.32
NOL3 | no change | no change | 0.82 | 1.68
DUSP29 | no change | no change | -0.62 | 1.42
PACSIN3 | no change | no change | 1.78 | -0.99
PSMD13 | no change (active) | CA1 (caspase activation) | -2.14 | 5.92
LLGL2 | no change | no change | 0.92 | 2.37
ACADM | no change | no change | -0.34 | -0.78
API5 | no change | no change | 0.59 | -0.66
MFN2 | no change | no change | -1.12 | -0.8
ACTL6A | no change | no change | 0.17 | 0.4
ZNF22-AS1 | no change | no change | -0.19 | -0.46
ACAD11 | no change | no change | 0.13 | -0.8
NSMF | no change | no change | 0.18 | -0.64
MKRN2 | no change | no change | -1.33 | 0.96
IFT38 | no change | no change | 0.8 | 2.44
ZNF561 | no change | no change | -0.24 | 0.7
PTPRK | no change | no change | 2.82 | 1.8
PTGIS | no change | no change | -1.75 | 0.6
EMP2 | no change | no change | 0.36 | -0.44
TMEM252 | no change | no change | 0.24 | -0.02
